Results on 1 substance are retold here after article PMC7310436, “JP3, an antiangiogenic peptide, inhibits growth and metastasis of gastric cancer through TRIM25/SP1/MMP2 axis” (Journal of Experimental & Clinical Cancer Research : CR, 2020).

Protein sequences, listed by entry. Tags and fused reporters are not part of them.
UniProt P08047: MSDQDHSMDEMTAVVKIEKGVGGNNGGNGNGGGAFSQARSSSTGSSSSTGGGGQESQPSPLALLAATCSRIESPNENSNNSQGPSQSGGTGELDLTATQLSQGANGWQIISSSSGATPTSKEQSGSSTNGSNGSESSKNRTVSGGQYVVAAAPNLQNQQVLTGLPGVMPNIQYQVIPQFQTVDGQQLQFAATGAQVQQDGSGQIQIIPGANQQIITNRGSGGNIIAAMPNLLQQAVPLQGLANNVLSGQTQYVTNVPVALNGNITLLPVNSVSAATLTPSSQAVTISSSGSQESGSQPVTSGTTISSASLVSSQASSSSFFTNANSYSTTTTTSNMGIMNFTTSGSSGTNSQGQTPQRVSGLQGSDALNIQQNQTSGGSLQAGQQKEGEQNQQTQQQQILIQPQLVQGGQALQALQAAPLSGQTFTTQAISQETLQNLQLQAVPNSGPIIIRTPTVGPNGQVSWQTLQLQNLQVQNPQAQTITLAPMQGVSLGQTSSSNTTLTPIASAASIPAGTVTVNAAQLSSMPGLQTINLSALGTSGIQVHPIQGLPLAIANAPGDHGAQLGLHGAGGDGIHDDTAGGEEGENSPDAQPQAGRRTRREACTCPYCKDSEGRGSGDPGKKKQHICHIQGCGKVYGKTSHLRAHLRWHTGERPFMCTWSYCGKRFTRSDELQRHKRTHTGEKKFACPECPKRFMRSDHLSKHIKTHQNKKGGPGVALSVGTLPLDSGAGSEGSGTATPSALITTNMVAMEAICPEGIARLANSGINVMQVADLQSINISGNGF
UniProt Q14258: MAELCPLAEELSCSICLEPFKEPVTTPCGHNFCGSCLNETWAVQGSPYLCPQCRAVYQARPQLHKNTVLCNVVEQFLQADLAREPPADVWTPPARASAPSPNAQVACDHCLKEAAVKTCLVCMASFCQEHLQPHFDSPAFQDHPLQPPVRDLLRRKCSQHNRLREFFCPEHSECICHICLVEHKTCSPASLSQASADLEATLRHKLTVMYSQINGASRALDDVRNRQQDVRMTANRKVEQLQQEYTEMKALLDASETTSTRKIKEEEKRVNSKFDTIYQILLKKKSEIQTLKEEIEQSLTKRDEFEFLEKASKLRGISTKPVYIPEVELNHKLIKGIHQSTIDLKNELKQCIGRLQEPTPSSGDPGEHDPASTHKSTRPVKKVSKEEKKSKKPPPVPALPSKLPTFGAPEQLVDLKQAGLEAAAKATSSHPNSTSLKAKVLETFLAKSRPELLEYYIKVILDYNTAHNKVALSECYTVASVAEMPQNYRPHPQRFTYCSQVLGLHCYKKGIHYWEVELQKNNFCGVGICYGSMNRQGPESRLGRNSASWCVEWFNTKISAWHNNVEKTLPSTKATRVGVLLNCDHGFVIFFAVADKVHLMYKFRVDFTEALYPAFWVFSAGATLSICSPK

The experiment addresses SP1 (human (endogenous in BGC823 and SGC7901)) (UniProt P08047). Nature of the experiment: co-IP; endogenous proteins in BGC823 and SGC7901 lysates; cells pre-treated with MG132 (10 uM) for 6 h; IP with anti-TRIM25 or anti-SP1 polyclonal antibodies, protein A/G agarose beads, Western blotting. A general note: Immunoblotting shows a protein as a band on a membrane.

No constants are given. Whether binding was seen depends on the method and setting. Binding seen in cells or lysates may run through a third protein. Some entries that bind do so weakly or less than the wild type.

With TRIM25 (from UniProt Q14258 1-630), the binding result was “binds”.
